Experimental data reported in patent publication EP1332756A2, “Compositions and methods for restoring a normal pattern of imprinting to cells” (priority 1996, dated 1998).
For at least one compound, name, drawing or mass did not settle the structure.

Tests used:
[1] = tested on: Cells having LOI, (Group A); assay: NCI database search for compounds effective against cell lines with LOI (Group A) but not those without LOI (Group B); details: lead compounds still to be tested
tumor cells with LOI = assay: In vitro effect of NCI lead compounds on LOI (allele ratio), saline as negative control; format: cell-based; details: grades + to +++++, key not given
Description: Based on the results showing that 5-aza-2'-deoxycytidine can restore normal imprinting to tumor cells with LOI, an analysis was performed using the drug discovery program described in Weinstein et al. (1997) Science 275:343-349, herein incorporated by reference. […] The highest correlations were as follows: 127716, 619003, 626883, 624646, 145118, 1850512, 626884, 626886, 622810, 176889, 622616, 620358, 619948, 622461, 624645, 15309, 638737, 294734, 112152, 153174 204816, 79037, 628082, 620319 (NCI reference numbers). These are considered lead compounds to determine whether they will restore normal imprinting or could be chemically modified to do so.
As a first test of this approach, the in vitro effect of 12 of these compounds were analyzed with saline as a negative control.

Compound	Predicted concentration [1]	Partial or Complete Reversal of LOI (tumor cells with LOI)
CCCCCCCCCCCCCCCCCCOP(=O)([O-])OCC[N+](C)(C)C [282880-7, octadecylphosphoryl choline]	10^-4M	–
CC1=CC(=O)C(C)=CC1=O [compound 15309, phlorone]	–	+
